Results: US20150232852

Protein sequences, listed by entry. Tags and fused reporters are not part of them. Residues count along the entry.
UniProt P01275, 53-81: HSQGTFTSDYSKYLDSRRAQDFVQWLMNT
UniProt P01275, 98-128: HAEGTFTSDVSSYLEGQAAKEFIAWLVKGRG
UniProt P01275, 53-89: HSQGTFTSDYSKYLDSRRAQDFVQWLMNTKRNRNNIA

How the values were obtained:
[1] = target: glucagon, L-form, biotinylated (glucagon1-29-AEEAc-AEEAc-biotin) (Homo sapiens) (UniProt P01275); test: competition with a labelled probe; settings: mirror-image nucleic acid
[2] = target: glucagon, L-form, biotinylated (glucagon1-29-AEEAc-AEEAc-biotin) (Homo sapiens) (UniProt P01275); test: SPR; settings: improved vs 259-H6-002, synthetic protein, mirror-image nucleic acid
[3] = target: GLP-1(7-37) (Homo sapiens) (UniProt P01275); test: competition with a labelled probe; settings: not recognized, purified recombinant protein, synthetic backbone, mirror-image nucleic acid
[4] = target: oxyntomodulin (OXM) (UniProt P01275); test: competition with a labelled probe; settings: comparable to glucagon, purified recombinant protein, synthetic backbone, mirror-image nucleic acid
[5] = L-DNA with six L-ribonucleotides as printed in Table 1, competitive pull-down, 37 C, synthetic protein, synthetic backbone
[6] = L-DNA with L-ribonucleotides rG,rG,rG,rG,rA,rA at central-stretch positions 2,8,11,12,22,23, not reduced vs 257-E1-6xR-001, synthetic protein, variant of 257-E1-6xR-001
[7] = L-DNA with seven L-ribonucleotides
[8] = L-DNA with L-ribonucleotides rG,rG,rG,rG,rA,rA at central-stretch positions 2,8,11,12,22,23, reduced vs 257-E1-6xR-001, synthetic protein, variant of 257-E1-6xR-001
[9] = L-DNA with six L-ribonucleotides

“GAGCCGGGAAATGGGAGGGCTAGGTGGAAGGAATCTGAGCGGCTC [257-E1-6xR-014]”: binds [1, 5].

“GCGCGGGGAAATGGGAGGGCTAGGTGGAAGGAATCTGAGCCGCGC [257-E1-7xR-023]”: binds ([1]; L-DNA with L-ribonucleotides rG,rG,rG,rG,rT,rA,rA at central-stretch positions 2,8,11,12,19,22,23, improved vs 257-E1-001, similar to 257-E1-6xR-010, synthetic protein, variant of 257-E1-6xR-010).

“GAGCGGGGAAATGGGAGGGCTAGGTGGAAGGAATCTGAGCCGCTC [257-E1-6xR-013]”: binds [1, 6].

“GCGTCGGGAAATGGGAGGGCTAGGTGGAAGGAATCTGAGCGACGC [257-E1-6xR-018]”: binds [1, 6].

“GGGCGGGGAAATGGGAGGGCTAGGTGGAAGGAATCTGAGCTGCCC [257-E1-6xR-007]”: binds [1, 5].

“GCCGAGAGGAAAGGTTGGTAAAGGTTCGGTTGGATTCACTCGGC [259-H6-014-R12 (spiegelmer)]”: binds ([2]; L-DNA with L-rA12, variant of 259-H6-002 (spiegelmer)).

“GGGCCGGGAAATGGGAGGGCTAGGTGGAAGGAATCTGAGCGGCCC [257-E1-6xR-011]”: binds [1, 6].

“GCGGGAAATGGGAGGGCTAGGTGGAAGGAATCTGAGCGC [257-E1-7xR-037]”: no binding [3, 7]; binds ([1]; L-DNA with L-ribonucleotides rG,rG,rG,rG,rT,rA,rA at central-stretch positions 2,8,11,12,19,22,23, almost the same affinity as 257-E1-7xR-023, synthetic …, variant of 257-E1-7xR-023); binds [4, 7].

“GGGCGGGGAAATGGGAGGGCTAGGTGGAAGGAATCTGAGCCGCCC [257-E1-6xR-009]”: binds [1, 5].

“GAGTGGGGAAATGGGAGGGCTAGGTGGAAGGAATCTGAGCTACTC [257-E1-6xR-003]”: binds [1, 5].

“GAGTGGGGAAATGGGAGGGCTAGGTGGAAGGAATCTGAGCCACTC [257-E1-6xR-015]”: binds [1, 5].

“GGCGGGGAAATGGGAGGGCTAGGTGGAAGGAATCTGAGCCGCC [257-E1-6xR-019]”: binds ([1]; L-DNA with L-ribonucleotides rG,rG,rG,rG,rA,rA at central-stretch positions 2,8,11,12,22,23, among best of five-nucleotide terminal stretches, synthetic …, variant of 257-E1-6xR-001).

“GCGCCGGGAAATGGGAGGGCTAGGTGGAAGGAATCTGAGCGGCGC [257-E1-6xR-012]”: binds [1, 6].

“CGGGGAAATGGGAGGGCTAGGTGGAAGGAATCTGAGCCG [257-E1-6xR-031]”: binds more weakly [1, 8].

“GCCGAGAGGAAAGGTTGGTAAAGGTTCGGTTGGAUTCACTCGGC [259-H6-014-R12/23/29/35/38]”: binds ([2]; L-DNA with L-rA12, L-rG23, L-rG29, L-rU35, L-rA38, variant of 259-H6-014-R12 (spiegelmer)).

“GAGTCGGGAAATGGGAGGGCTAGGTGGAAGGAATCTGAGCGACTC [257-E1-6xR-017]”: binds [1, 5].

“CGCGGGGAAATGGGAGGGCTAGGTGGAAGGAATCTGAGCCGCG [257-E1-6xR-020]”: binds [1, 6].

“GCCGAGAGGAAAGGTTGGTAAAGGTTCGGTTGGAUTCACTCGGC [259-H6-014-R12/23/35]”: binds ([2]; L-DNA with L-rA12, L-rG23, L-rU35, variant of 259-H6-014-R12 (spiegelmer)).

“AGTGGGGAAATGGGAGGGCTAGGTGGAAGGAATCTGAGCTACT [257-E1-6xR-004]”: binds [1, 5].

“GCGTGGGGAAATGGGAGGGCTAGGTGGAAGGAATCTGAGCTACGC [257-E1-6xR-006]”: binds [1, 5].

“GCGGGGAAATGGGAGGGCTAGGTGGAAGGAATCTGAGCCGC [257-E1-6xR-029]”: binds more weakly [1, 8].

“GGGTGGGGAAATGGGAGGGCTAGGTGGAAGGAATCTGAGCTACCC [257-E1-6xR-005]”: binds [1, 5].

“GGGGAAATGGGAGGGCTAGGTGGAAGGAATCTGAGCC [257-E1-6xR-032]”: binds more weakly [1, 8].

“GCAGTGGGGAAATGGGAGGGCTAGGTGGAAGGAATCTGAGCTACTGC [257-E1-6xR-001]”: no binding [3, 9]; binds [4, 9].

“GCGGGAAATGGGAGGGCTAGGTGGAAGGAATCTGAGCGC [257-E1-6xR-030]”: binds more weakly [1, 8].

“GCGCGGGGAAATGGGAGGGCTAGGTGGAAGGAATCTGAGCTGCGC [257-E1-6xR-008]”: binds [1, 6].

“GGGAAATGGGAGGGCTAGGTGGAAGGAATCTGAGC [257-E1-6xR-033]”: binds more weakly [1, 8].

“GCGCGGGGAAATGGGAGGGCTAGGTGGAAGGAATCTGAGCCGCGC [257-E1-6xR-010]”: binds [1, 6].

“GCGTGGGGAAATGGGAGGGCTAGGTGGAAGGAATCTGAGCCACGC [257-E1-6xR-016]”: binds [1, 6].

Construct, isoform or probe ends are uncertain for at least one entry. For some assays here: No signal at the amounts used counts as a negative. For some assays here: A weaker result is weaker than the reference pair of the same experiment.
